From the supplement of paper PMC3334620
Whole data set: some 33,000 sequences, median “E-score (-0.5 to 0.5)” near -0.015, cut for the highest 2% near 0.3. The list shows a part of the results.

These sequences were tested against T1, Abf1 (UniProt P14164) (assay: PBM E-score (8-mer binding enrichment) (E-score (-0.5 to 0.5)); higher = stronger / more preferred TF binding). Details: protein concentration: 200 nM; construct: GST-full length.
T1 sequence: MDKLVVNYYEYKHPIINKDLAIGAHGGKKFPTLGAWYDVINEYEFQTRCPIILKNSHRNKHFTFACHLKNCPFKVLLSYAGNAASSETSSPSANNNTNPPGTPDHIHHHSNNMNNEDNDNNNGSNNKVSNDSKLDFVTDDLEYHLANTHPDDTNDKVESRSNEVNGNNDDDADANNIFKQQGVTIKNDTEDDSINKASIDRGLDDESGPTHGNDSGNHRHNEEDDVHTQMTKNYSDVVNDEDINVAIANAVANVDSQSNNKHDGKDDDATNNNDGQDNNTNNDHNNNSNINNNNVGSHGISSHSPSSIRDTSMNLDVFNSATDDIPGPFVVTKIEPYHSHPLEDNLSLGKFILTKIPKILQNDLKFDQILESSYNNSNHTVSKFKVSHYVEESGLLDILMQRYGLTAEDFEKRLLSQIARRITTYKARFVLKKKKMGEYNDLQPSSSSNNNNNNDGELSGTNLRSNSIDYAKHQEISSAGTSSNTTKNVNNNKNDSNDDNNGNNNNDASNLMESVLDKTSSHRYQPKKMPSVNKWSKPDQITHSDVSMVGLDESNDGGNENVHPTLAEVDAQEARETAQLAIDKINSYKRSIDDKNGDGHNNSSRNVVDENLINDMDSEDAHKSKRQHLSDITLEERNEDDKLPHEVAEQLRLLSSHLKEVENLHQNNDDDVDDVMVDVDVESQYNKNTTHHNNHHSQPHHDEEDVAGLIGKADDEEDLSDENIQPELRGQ
Experimental: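 Universal 'all 10-mer' protein binding microarrays (Agilent AMADID 015681) probed with GST-tagged S. cerevisiae TFs (full-length or DBD) made by in vitro transcription/translation (PURExpress), about 100-200 nM. Bound TF was detected with fluorescent anti-GST. Each ungapped 8-mer (which stands for itself and its reverse complement) is scored by the PBM enrichment score (E-score), a modified Wilcoxon-Mann-Whitney statistic from -0.5 to +0.5, computed with the Universal PBM Analysis Suite. Scale: above 0.35 generally sequence-specific binding.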

Sequence | PBM E-score
GCCTCAAA | -0.0894
AACCAAGG | -0.11
CAACCACG | 0.0943
GGTTATAA | -0.0328
GCTAAACA | 0.0602
CTATGCCA | -0.205
CTGCAGGC | -0.251
CGAGCACG | 0.0518
AGCGAGAT | 0.0588
CTTAAGGC | -0.19
ATCGCTTC | 0.19
GCAAACCA | -0.113
GCCGAGGC | -0.0428
ATTTGGGC | -0.0914
CGTAGTTC | -0.0223
GGTTAAAC | 0.0906
AATGGGGT | -0.169
CTGGAGCC | -0.191
ACCCCGGT | -0.213
CCTACAGA | -0.109
ATCCTAGG | -0.211
ATTTAGGC | -0.0483
AGCACACC | -0.13
AACCAAAC | -0.0941
ACCAAAAA | 0.133

Sequence | PBM E-score
CAGATCTC | 0.0205
AGGCTCCC | -0.233
ATCGTGCC | 0.276
TCCAACCA | -0.111
ATCTAGGG | 0.122
GAGTGAAA | -0.117
GACGTCTC | 0.148
CCTTGCAC | -0.0394
CTGAGCAA | -0.0714
AGCCGAAG | -0.0813
GAGCGTAC | -0.0668
AGCGATTA | 0.0361
ATTGCCAC | -0.0683
GAACGTTC | 0.107
CTGAAAAG | -0.176
ATCCATGA | -0.0222
CAGGACCA | -0.0331
CCGTGGCC | -0.214
CCCTTCGG | -0.279
AAGGCTCG | -0.0968
ACTACCGC | 0.0527
CAACCTGC | -0.131
ACCGCGGC | -0.037
TGCCTCAA | -0.124
AGACTCCC | -0.11

Sequence | PBM E-score
CACTCCAC | -0.165
ATCTAGGC | -0.188
TCACGAAA | 0.286
CGCCGGCC | -0.248
ACGCTTCG | -0.0404
AGACTCCT | -0.247
CGTCTTTC | 0.0707
ACTTTCTG | 0.0859
CGACGAAC | 0.168
CGCTTATA | 0.189
GCAGTAGA | -0.0802
AGATGCCC | -0.144
CTGTGTCA | -0.119
AAGCAAAG | -0.094
CGCGATCA | 0.199
CCTATTAC | -0.0667
CACCTCTG | -0.0203
ACGACCCT | -0.0266
AGGTGGTA | 0.0995
ACGTTTCT | -0.0999
GCGAATGA | 0.173
AATCCAAC | -0.0279
CTCTCCAC | -0.165
AGGCTGCC | -0.182
TATGTTCA | 0.0909

An excerpt of these results, in markdown.

| Sequence | PBM E-score |
| --- | --- |
| CGTCTTTC | 0.0707 |
| ACTTTCTG | 0.0859 |
| CGACGAAC | 0.168 |
| CGCTTATA | 0.189 |
| GCAGTAGA | -0.0802 |
| AGATGCCC | -0.144 |

(list continues)

Sequence | PBM E-score
CATACACC | -0.164
AACGTTGA | -0.00525
TGCACCAA | -0.161
AACACACG | 0.0217
CGATTGTA | -0.0439
ATTGCCTC | 0.0247
CAAGGGTA | -0.0788
AGCTAAAT | 0.156
GAAAACTA | -0.0964
ATATGGCC | -0.214
CGGAGAGC | -0.156
CGGGCGTC | -0.198
CTCGATTA | 0.0265
GCAAGGCA | -0.119
GGAAACAC | 0.101
ACGTGGCT | -0.145
AGAGTTGC | -0.03
GCAGATGC | -0.106
TTGCTAAA | -0.0249
GTCCGCCA | -0.239
AATGCTTG | -0.0574
ACATTGTA | 0.0682
TCGTTGCA | 0.261
GGCCACAC | -0.0874
TAACAAAA | 0.168

Sequence | PBM E-score
CACAGGCG | -0.275
AAGCCAAT | -0.111
ACTGGTAA | 0.0626
CATTTCAG | -0.00912
GCCGCAGA | -0.0113
GCTCGCCA | -0.0326
AGCAGTTG | -0.119
AAACGTGA | 0.125
GCTCCCAA | -0.196
GACTAAAA | 0.0432
AACTTACC | 0.0558
ACGTATAG | 0.186
CTAACAAC | 0.0908
GTTTCCAA | -0.0169
ATGCGCAG | -0.106
ATAGGATA | 0.107
AGTCCCTA | 0.0654
GGGTCAAA | -0.135
GGAGCAAA | -0.207
ACGGCGGG | 0.106
CGGGGCGC | -0.295
CCAAACCC | 0.0472
AACAGGCC | -0.204
ATGTAATG | 0.204
TTCAGAAA | 0.0364

Sequence | PBM E-score
CAAGCCTC | -0.348
CGAATATA | 0.0491
CGATCAGA | -0.00274
AGTACTTG | 0.0251
TAATTGGA | 0.141
AAGTGATA | 0.39
AAGTTTCG | -0.059
ACCTCAAT | -0.00184
TAAAATCA | 0.216
CGACCGCC | -0.168
CGGGCACA | -0.00948
GCCGATAA | -0.0504
CTCCAGGA | -0.0722
CACGGAGA | 0.024
AACATGTT | 0.0588
GCAGGGGC | -0.286
GTCTGATA | -0.0819
AGAAACCG | -0.0801
CGCTCTAC | 0.0668
TATTGGAA | 0.0784
ACTTTACA | 0.0325
AGGCTCGG | -0.198
CAGCGCAC | -0.111
ATTGCCGG | -0.103
CCCGACTA | -0.112

Sequence | PBM E-score
CGGATAAA | 0.164
ATTTGACA | 0.205
CCATCCGA | -0.0164
ATAATCAA | 0.0595
TCGGGAAA | 0.118
GTCTAATA | -0.0369
TATGATAA | 0.258
AAACGCAT | -0.185
CTAAGGGC | -0.187
GCAATTTA | 0.0461
AGAGTGCC | -0.048
CGGCGGAG | 0.0184
CCTGCTCG | -0.306
CTCGACGA | 0.168
CTCAGGGA | -0.225
GCCAATCC | -0.133
AAAGTAGA | -0.0458
GCACTGGA | -0.0511
GATCGCTA | 0.157
ATGCGGCA | -0.175
GTTTTTGA | 0.17
ATGTACTC | -0.0861
